{"sequences": {"note": "By UniProt entry, the sequences of proteins in these tests, tags left out. Where a name states a change or a piece, a line headed by the entry shows the natural chain unless it says otherwise. Residues count along the entry.", "UniProt O95639, whole entry, looked up": "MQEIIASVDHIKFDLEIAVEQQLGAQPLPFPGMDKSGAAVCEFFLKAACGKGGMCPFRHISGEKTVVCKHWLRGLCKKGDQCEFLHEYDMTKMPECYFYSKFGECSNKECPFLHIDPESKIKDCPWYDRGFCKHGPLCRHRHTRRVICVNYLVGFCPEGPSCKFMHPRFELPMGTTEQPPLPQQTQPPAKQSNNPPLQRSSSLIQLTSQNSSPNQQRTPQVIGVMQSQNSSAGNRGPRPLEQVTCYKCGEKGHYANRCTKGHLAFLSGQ", "UniProt P61201": "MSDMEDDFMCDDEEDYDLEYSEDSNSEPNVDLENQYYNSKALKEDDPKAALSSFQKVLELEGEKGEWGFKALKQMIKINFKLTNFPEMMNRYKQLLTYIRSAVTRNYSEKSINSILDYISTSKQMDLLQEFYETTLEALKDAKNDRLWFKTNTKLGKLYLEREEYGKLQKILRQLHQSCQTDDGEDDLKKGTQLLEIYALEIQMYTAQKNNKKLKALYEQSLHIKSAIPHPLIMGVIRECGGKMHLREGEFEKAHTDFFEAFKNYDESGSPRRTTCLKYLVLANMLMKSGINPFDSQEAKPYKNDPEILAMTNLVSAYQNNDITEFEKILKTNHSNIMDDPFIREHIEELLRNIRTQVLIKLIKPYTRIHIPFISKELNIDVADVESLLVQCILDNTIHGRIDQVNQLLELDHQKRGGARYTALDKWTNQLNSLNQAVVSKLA", "UniProt Q8NI60": "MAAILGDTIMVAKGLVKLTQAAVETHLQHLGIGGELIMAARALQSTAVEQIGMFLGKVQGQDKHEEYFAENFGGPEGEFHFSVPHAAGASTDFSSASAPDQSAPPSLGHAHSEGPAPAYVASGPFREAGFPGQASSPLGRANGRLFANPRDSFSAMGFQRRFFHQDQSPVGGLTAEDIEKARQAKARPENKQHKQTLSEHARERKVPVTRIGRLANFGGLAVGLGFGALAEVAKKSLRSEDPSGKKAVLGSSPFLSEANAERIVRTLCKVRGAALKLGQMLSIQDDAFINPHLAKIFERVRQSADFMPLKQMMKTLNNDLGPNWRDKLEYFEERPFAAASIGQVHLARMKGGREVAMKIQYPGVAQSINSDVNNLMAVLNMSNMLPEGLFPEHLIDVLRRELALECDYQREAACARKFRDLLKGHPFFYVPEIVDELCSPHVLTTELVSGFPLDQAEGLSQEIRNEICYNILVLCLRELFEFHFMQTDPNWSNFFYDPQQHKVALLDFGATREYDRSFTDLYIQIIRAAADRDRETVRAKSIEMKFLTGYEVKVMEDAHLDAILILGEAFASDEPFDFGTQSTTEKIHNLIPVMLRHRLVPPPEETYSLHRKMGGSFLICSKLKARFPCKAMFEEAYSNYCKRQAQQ", "UniProt Q6P4Q7, 725-746": "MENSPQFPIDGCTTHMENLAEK", "UniProt O76071, 223-242": "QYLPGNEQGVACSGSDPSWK", "UniProt Q14019": "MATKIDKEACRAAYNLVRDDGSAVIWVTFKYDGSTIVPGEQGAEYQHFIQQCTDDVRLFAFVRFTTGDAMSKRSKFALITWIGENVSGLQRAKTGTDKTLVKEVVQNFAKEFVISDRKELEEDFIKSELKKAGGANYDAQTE", "UniProt Q9ULV3": "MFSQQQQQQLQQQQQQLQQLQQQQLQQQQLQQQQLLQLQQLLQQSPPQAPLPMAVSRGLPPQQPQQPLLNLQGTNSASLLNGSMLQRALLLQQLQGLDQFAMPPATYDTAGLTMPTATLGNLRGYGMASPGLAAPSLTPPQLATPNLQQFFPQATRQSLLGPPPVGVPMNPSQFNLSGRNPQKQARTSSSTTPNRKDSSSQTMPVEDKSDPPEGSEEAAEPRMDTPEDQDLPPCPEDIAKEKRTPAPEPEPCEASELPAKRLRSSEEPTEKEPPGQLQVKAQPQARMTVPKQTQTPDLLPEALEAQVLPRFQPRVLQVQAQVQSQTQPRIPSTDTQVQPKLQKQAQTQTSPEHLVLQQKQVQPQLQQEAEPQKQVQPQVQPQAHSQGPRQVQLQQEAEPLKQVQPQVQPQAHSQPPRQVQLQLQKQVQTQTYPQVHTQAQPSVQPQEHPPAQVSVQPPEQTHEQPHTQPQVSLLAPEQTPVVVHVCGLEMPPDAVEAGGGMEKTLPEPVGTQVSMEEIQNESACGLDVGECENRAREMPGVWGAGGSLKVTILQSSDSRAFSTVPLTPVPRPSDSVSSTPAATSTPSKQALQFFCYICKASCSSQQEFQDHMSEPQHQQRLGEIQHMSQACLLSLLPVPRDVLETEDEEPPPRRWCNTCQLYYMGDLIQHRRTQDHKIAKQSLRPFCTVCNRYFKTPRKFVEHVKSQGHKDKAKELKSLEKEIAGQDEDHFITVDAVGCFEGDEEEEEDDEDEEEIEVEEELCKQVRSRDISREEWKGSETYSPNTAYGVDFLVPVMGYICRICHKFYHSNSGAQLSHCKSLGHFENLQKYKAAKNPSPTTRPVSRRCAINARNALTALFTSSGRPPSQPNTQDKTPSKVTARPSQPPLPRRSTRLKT", "UniProt Q8IWX8": "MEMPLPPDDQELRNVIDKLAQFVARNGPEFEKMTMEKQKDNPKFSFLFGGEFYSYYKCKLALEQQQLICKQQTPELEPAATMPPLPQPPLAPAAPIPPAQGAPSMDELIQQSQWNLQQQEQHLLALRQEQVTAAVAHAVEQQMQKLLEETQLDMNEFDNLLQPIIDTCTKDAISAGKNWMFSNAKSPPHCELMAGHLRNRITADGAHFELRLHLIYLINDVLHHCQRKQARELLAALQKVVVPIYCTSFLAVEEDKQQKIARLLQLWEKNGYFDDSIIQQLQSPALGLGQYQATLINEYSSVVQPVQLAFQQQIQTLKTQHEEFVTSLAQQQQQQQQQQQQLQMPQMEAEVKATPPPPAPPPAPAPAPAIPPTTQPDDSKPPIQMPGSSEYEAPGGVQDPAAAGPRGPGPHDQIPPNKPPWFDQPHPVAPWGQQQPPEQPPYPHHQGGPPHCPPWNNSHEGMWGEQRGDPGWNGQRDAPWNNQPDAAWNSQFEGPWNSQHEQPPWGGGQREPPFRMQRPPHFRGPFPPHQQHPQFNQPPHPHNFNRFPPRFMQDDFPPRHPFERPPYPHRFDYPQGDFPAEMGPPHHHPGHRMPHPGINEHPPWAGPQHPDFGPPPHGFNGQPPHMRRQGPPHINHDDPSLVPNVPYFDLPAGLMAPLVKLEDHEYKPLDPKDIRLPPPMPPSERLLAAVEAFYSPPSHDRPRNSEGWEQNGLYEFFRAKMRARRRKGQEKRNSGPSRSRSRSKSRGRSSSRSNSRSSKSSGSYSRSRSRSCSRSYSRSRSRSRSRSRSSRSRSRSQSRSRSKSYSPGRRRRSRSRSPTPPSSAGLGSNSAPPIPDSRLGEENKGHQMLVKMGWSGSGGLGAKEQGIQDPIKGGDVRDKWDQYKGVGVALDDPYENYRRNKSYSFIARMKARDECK", "UniProt P24386": "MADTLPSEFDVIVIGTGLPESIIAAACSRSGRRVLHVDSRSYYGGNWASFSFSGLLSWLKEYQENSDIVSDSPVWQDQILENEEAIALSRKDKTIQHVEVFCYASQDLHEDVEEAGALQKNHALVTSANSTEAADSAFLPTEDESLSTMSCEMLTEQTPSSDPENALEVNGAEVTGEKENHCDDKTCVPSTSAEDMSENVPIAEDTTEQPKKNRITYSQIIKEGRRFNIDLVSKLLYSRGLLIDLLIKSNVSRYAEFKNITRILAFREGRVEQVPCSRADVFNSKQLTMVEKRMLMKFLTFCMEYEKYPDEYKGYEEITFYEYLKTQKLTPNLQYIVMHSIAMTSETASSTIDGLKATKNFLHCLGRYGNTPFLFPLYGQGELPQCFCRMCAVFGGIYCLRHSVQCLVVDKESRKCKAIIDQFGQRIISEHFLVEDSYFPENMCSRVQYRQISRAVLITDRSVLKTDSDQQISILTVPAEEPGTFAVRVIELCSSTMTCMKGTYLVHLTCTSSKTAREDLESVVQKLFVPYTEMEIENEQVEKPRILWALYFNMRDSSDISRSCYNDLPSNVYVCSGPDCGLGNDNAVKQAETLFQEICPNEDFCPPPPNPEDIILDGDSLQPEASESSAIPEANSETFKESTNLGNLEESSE", "UniProt Q92828": "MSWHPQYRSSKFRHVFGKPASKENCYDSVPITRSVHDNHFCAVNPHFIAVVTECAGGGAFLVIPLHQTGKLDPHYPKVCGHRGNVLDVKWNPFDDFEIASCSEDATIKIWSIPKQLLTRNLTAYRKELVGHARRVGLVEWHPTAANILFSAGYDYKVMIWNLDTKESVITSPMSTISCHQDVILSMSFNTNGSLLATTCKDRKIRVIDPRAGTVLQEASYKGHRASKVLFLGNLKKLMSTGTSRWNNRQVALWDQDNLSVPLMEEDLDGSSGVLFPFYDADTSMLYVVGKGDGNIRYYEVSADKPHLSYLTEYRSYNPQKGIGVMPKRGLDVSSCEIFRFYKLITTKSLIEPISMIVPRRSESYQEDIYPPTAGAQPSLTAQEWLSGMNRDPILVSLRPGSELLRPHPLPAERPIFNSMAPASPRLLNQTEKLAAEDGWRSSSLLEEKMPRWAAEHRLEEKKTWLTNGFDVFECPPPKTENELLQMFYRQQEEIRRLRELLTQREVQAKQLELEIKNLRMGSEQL", "UniProt P83436": "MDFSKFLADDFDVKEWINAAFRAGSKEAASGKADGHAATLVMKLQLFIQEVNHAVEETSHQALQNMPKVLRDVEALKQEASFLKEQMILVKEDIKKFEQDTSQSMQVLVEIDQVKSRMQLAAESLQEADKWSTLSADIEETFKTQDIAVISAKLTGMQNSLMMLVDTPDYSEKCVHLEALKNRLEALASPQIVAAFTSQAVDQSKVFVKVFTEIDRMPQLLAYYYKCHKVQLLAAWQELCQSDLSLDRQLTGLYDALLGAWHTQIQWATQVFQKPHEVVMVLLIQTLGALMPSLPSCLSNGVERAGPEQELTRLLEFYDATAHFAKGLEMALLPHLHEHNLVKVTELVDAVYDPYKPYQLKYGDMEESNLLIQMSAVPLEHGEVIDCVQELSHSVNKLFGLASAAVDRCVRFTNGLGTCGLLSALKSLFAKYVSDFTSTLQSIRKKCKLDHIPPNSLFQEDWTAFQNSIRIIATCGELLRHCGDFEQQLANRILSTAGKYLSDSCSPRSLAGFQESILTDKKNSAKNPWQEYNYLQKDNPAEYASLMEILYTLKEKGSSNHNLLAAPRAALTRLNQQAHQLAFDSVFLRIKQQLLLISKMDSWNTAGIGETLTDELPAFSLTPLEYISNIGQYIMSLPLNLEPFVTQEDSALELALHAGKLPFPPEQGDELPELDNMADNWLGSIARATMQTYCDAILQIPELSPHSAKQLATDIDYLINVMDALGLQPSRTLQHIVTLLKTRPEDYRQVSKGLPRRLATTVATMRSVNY", "UniProt O75122": "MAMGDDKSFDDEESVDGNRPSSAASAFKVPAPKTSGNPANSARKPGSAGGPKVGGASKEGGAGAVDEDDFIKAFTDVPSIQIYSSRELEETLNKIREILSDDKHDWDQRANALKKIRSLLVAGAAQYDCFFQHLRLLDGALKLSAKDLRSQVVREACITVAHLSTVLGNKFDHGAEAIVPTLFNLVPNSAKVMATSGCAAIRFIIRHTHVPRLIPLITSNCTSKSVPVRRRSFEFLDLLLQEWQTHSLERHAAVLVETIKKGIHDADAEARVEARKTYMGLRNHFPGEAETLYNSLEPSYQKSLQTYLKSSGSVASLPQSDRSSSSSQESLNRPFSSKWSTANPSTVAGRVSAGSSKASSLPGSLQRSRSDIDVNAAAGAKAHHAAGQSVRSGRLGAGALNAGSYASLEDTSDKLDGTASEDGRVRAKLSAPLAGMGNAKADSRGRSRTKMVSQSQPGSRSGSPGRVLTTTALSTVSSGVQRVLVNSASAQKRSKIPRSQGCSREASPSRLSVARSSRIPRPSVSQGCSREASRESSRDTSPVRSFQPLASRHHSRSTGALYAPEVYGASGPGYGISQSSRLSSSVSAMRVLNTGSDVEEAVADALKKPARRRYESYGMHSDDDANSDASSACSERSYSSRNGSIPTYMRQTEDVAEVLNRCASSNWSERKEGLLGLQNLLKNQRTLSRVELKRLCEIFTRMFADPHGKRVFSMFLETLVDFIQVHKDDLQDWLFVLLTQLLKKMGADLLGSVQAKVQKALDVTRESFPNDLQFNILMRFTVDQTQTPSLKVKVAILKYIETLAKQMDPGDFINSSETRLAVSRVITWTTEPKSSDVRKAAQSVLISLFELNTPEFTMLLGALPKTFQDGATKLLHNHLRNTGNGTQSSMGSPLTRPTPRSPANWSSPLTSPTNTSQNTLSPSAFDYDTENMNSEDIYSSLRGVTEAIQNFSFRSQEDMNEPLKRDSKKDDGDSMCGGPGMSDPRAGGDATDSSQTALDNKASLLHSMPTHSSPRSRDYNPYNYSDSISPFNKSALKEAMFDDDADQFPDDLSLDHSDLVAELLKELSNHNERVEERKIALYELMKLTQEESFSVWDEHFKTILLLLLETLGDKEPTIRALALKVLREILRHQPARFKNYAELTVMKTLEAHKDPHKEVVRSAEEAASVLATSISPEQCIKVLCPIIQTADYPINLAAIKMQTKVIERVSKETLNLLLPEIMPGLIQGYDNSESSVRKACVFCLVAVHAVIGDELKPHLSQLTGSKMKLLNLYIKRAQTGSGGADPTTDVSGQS"}, "source": "the supplement of paper PMC11732987", "about": "“Enantioselective OTUD7B fragment discovery through chemoproteomics screening and high-throughput optimisation” (Communications Chemistry, 2025)", "note": "This is one part of the list. The data scatter; read single values as rough."}
{"compound": "ClCC(=O)N[C@@H]1CCCc2ccccc12", "assay": "log2 mean competition ratio of IA-DTB cysteine labelling (DMSO/compound) (log2 ratio); higher = stronger cysteine engagement by compound", "conditions": "50 µM; treatment time: 4 h; cell line lysate: HEK293T", "description": "(§1)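 IA-DTB competitive cysteine chemoproteomics in HEK293T RIPA lysate. Lysates were treated with compound 29 or 30 at 50 or 200 µM for 4 h, then IA-DTB (500 µM, 1 h), trypsin-digested, NeutrAvidin-enriched and analysed by diaPASEF. Competition ratio = intensity DMSO / intensity compound (n=4 treated, n=64 DMSO); binding: mean log2 CR ≥ 1 and p ≤ 0.05 plus QC filters. Target is the cysteine site.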"}
{"target": "CLCN7 C211 (UniProt P51798)", "log2 mean competition ratio": 0.176}
{"target": "CPSF4 C55 (UniProt O95639)", "log2 mean competition ratio": -0.0595}
{"target": "CPNE3 C54 (UniProt O75131)", "log2 mean competition ratio": 0.447}
{"target": "COPS2 C179 (UniProt P61201)", "log2 mean competition ratio": -0.534}
{"target": "COQ8A C620 (UniProt Q8NI60)", "log2 mean competition ratio": 0.327}
{"target": "CNNM4 C736 (UniProt Q6P4Q7)", "log2 mean competition ratio": -0.0617}
{"target": "CLMN C353", "log2 mean competition ratio": 0.0499}
{"target": "CLCN7 C637 (UniProt P51798)", "log2 mean competition ratio": -0.0563}
{"target": "CIAO1 C234 (UniProt O76071)", "log2 mean competition ratio": -0.597}
{"target": "COPA C514 (UniProt P53621)", "log2 mean competition ratio": -0.163}
{"target": "CPNE1 C53 (UniProt Q99829)", "log2 mean competition ratio": 0.364}
{"target": "CLTCL1 C459 (UniProt P53675)", "log2 mean competition ratio": 0.156}
{"target": "COTL1 C10 (UniProt Q14019)", "log2 mean competition ratio": -0.103}
{"target": "CLSTN3 C66 (UniProt Q9BQT9)", "log2 mean competition ratio": -0.114}
{"target": "CIZ1 C234 (UniProt Q9ULV3)", "log2 mean competition ratio": 0.141}
{"target": "COG6 C234 (UniProt Q9Y2V7)", "log2 mean competition ratio": -0.0491}
{"target": "CNOT10 C327 (UniProt Q9H9A5)", "log2 mean competition ratio": -0.219}
{"target": "COLGALT1 C369 (UniProt Q8NBJ5)", "log2 mean competition ratio": -0.184}
{"target": "CHERP C69 (UniProt Q8IWX8)", "log2 mean competition ratio": 0.191}
{"target": "CHM C276 (UniProt P24386)", "log2 mean competition ratio": -0.202}
{"target": "CLGN C511 (UniProt O14967)", "log2 mean competition ratio": -0.133}
{"target": "CORO2A C25 (UniProt Q92828)", "log2 mean competition ratio": 0.122}
{"target": "CMC2 C37 (UniProt Q9NRP2)", "log2 mean competition ratio": -0.0187}
{"target": "COPG1 C129 (UniProt Q9Y678)", "log2 mean competition ratio": 0.329}
{"target": "COG7 C505 (UniProt P83436)", "log2 mean competition ratio": -0.0431}
{"target": "CHTF8 C83", "log2 mean competition ratio": -0.0673}
{"target": "CHUK C371 (UniProt O15111)", "log2 mean competition ratio": 0.086}
{"target": "CORO7 C505 (UniProt P57737)", "log2 mean competition ratio": 0.0733}
{"target": "COBLL1 C177 (UniProt Q53SF7)", "log2 mean competition ratio": 0.295}
{"target": "COPA C245 (UniProt P53621)", "log2 mean competition ratio": -0.151}
{"target": "CLASP2 C198 (UniProt O75122)", "log2 mean competition ratio": 0.244}
{"target": "CPSF4 C82 (UniProt O95639)", "log2 mean competition ratio": -0.172}
{"target": "CORO7 C695 (UniProt P57737)", "log2 mean competition ratio": -0.295}
{"target": "CRACD C1228", "log2 mean competition ratio": 0.00567}
{"target": "CLASP1 C453 (UniProt Q7Z460)", "log2 mean competition ratio": 0.511}
{"target": "CRACR2A C341 (UniProt Q9BSW2)", "log2 mean competition ratio": 0.305}
{"target": "CLK3 C294 (UniProt P49761)", "log2 mean competition ratio": 0.0193}
{"compound": "ClCC(=O)N[C@@H]1CCCc2ccccc12", "assay": "log2 mean competition ratio of IA-DTB cysteine labelling (DMSO/compound) (log2 ratio); higher = stronger cysteine engagement by compound", "conditions": "200 µM; treatment time: 4 h; cell line lysate: HEK293T", "description": "as §1"}
{"target": "CLCN7 C211 (UniProt P51798)", "log2 mean competition ratio": -0.134}
{"target": "CPSF4 C55 (UniProt O95639)", "log2 mean competition ratio": 0.253}
{"target": "CPNE3 C54 (UniProt O75131)", "log2 mean competition ratio": -0.228}
{"target": "COPS2 C179 (UniProt P61201)", "log2 mean competition ratio": 0.0512}
{"target": "COQ8A C620 (UniProt Q8NI60)", "log2 mean competition ratio": 0.146}
{"target": "CNNM4 C736 (UniProt Q6P4Q7)", "log2 mean competition ratio": -0.562}
{"target": "CLMN C353", "log2 mean competition ratio": 0.201}
{"target": "CLCN7 C637 (UniProt P51798)", "log2 mean competition ratio": -0.178}
{"target": "CIAO1 C234 (UniProt O76071)", "log2 mean competition ratio": 0.257}
{"target": "COPA C514 (UniProt P53621)", "log2 mean competition ratio": 0.0614}
{"target": "CPNE1 C53 (UniProt Q99829)", "log2 mean competition ratio": -0.811}
{"target": "CLTCL1 C459 (UniProt P53675)", "log2 mean competition ratio": 0.215}
{"target": "COTL1 C10 (UniProt Q14019)", "log2 mean competition ratio": -0.0592}
{"target": "CLSTN3 C66 (UniProt Q9BQT9)", "log2 mean competition ratio": 0.00261}
{"target": "CIZ1 C234 (UniProt Q9ULV3)", "log2 mean competition ratio": -0.098}
{"target": "COG6 C234 (UniProt Q9Y2V7)", "log2 mean competition ratio": 0.352}
{"target": "CNOT10 C327 (UniProt Q9H9A5)", "log2 mean competition ratio": -0.376}
{"target": "COLGALT1 C369 (UniProt Q8NBJ5)", "log2 mean competition ratio": 0.189}
{"target": "CHERP C69 (UniProt Q8IWX8)", "log2 mean competition ratio": -0.0123}
{"target": "CHM C276 (UniProt P24386)", "log2 mean competition ratio": -0.424}
{"target": "CLGN C511 (UniProt O14967)", "log2 mean competition ratio": 0.0816}
{"target": "CORO2A C25 (UniProt Q92828)", "log2 mean competition ratio": -0.017}
{"target": "CMC2 C37 (UniProt Q9NRP2)", "log2 mean competition ratio": -0.077}
{"target": "COPG1 C129 (UniProt Q9Y678)", "log2 mean competition ratio": 0.353}
{"target": "COG7 C505 (UniProt P83436)", "log2 mean competition ratio": -0.153}
{"target": "CHTF8 C83", "log2 mean competition ratio": 0.132}
{"target": "CHUK C371 (UniProt O15111)", "log2 mean competition ratio": 0.367}
{"target": "CORO7 C505 (UniProt P57737)", "log2 mean competition ratio": -0.0872}
{"target": "COBLL1 C177 (UniProt Q53SF7)", "log2 mean competition ratio": 0.16}
{"target": "COPA C245 (UniProt P53621)", "log2 mean competition ratio": -0.057}
{"target": "CLASP2 C198 (UniProt O75122)", "log2 mean competition ratio": 0.272}
{"target": "CPSF4 C82 (UniProt O95639)", "log2 mean competition ratio": 0.559}
{"target": "CORO7 C695 (UniProt P57737)", "log2 mean competition ratio": -0.311}
{"target": "CRACD C1228", "log2 mean competition ratio": -0.017}
{"target": "CLASP1 C453 (UniProt Q7Z460)", "log2 mean competition ratio": 0.235}
{"target": "CRACR2A C341 (UniProt Q9BSW2)", "log2 mean competition ratio": 0.0567}
{"target": "CLK3 C294 (UniProt P49761)", "log2 mean competition ratio": 0.25}
{"compound": "ClCC(=O)N[C@H]1CCCc2ccccc12", "assay": "log2 mean competition ratio of IA-DTB cysteine labelling (DMSO/compound) (log2 ratio); higher = stronger cysteine engagement by compound", "conditions": "50 µM; treatment time: 4 h; cell line lysate: HEK293T", "description": "as §1"}
{"target": "CLCN7 C211 (UniProt P51798)", "log2 mean competition ratio": -0.323}
{"target": "CPSF4 C55 (UniProt O95639)", "log2 mean competition ratio": -0.352}
{"target": "CPNE3 C54 (UniProt O75131)", "log2 mean competition ratio": 0.303}
{"target": "COPS2 C179 (UniProt P61201)", "log2 mean competition ratio": -0.266}
{"target": "COQ8A C620 (UniProt Q8NI60)", "log2 mean competition ratio": -0.126}
{"target": "CNNM4 C736 (UniProt Q6P4Q7)", "log2 mean competition ratio": 0.471}
{"target": "CLMN C353", "log2 mean competition ratio": -0.121}
{"target": "CLCN7 C637 (UniProt P51798)", "log2 mean competition ratio": 0.487}
{"target": "CIAO1 C234 (UniProt O76071)", "log2 mean competition ratio": 0.0818}
{"target": "COPA C514 (UniProt P53621)", "log2 mean competition ratio": -0.245}
{"target": "CPNE1 C53 (UniProt Q99829)", "log2 mean competition ratio": 0.69}
{"target": "CLTCL1 C459 (UniProt P53675)", "log2 mean competition ratio": 0.0585}
{"target": "COTL1 C10 (UniProt Q14019)", "log2 mean competition ratio": -0.0302}
{"target": "CLSTN3 C66 (UniProt Q9BQT9)", "log2 mean competition ratio": -0.27}
{"target": "CIZ1 C234 (UniProt Q9ULV3)", "log2 mean competition ratio": -0.12}
{"target": "COG6 C234 (UniProt Q9Y2V7)", "log2 mean competition ratio": -0.126}
{"target": "CNOT10 C327 (UniProt Q9H9A5)", "log2 mean competition ratio": 0.0415}
{"target": "COLGALT1 C369 (UniProt Q8NBJ5)", "log2 mean competition ratio": -0.282}
{"target": "CHERP C69 (UniProt Q8IWX8)", "log2 mean competition ratio": -0.331}
{"target": "CHM C276 (UniProt P24386)", "log2 mean competition ratio": 0.0732}
{"target": "CLGN C511 (UniProt O14967)", "log2 mean competition ratio": -0.143}
{"target": "CORO2A C25 (UniProt Q92828)", "log2 mean competition ratio": 0.286}
{"target": "CMC2 C37 (UniProt Q9NRP2)", "log2 mean competition ratio": -0.169}
{"target": "COPG1 C129 (UniProt Q9Y678)", "log2 mean competition ratio": 0.297}
{"target": "COG7 C505 (UniProt P83436)", "log2 mean competition ratio": 0.587}
{"target": "CHTF8 C83", "log2 mean competition ratio": -0.0153}
{"target": "CHUK C371 (UniProt O15111)", "log2 mean competition ratio": 0.113}
{"target": "CORO7 C505 (UniProt P57737)", "log2 mean competition ratio": 0.581}
{"target": "COBLL1 C177 (UniProt Q53SF7)", "log2 mean competition ratio": -0.457}
{"target": "COPA C245 (UniProt P53621)", "log2 mean competition ratio": 0.305}
{"target": "CLASP2 C198 (UniProt O75122)", "log2 mean competition ratio": 0.399}
{"target": "CPSF4 C82 (UniProt O95639)", "log2 mean competition ratio": -0.796}
{"target": "CORO7 C695 (UniProt P57737)", "log2 mean competition ratio": -0.491}
{"target": "CRACD C1228", "log2 mean competition ratio": -0.284}
{"target": "CLASP1 C453 (UniProt Q7Z460)", "log2 mean competition ratio": 0.452}
{"target": "CRACR2A C341 (UniProt Q9BSW2)", "log2 mean competition ratio": 0.0788}
{"target": "CLK3 C294 (UniProt P49761)", "log2 mean competition ratio": -0.0717}
